The target in test [1] is RbcLTe–RbcX_(6803) complex (Thermosynechococcus elongatus | Synechocystis sp. PCC 6803). As to the kind of experiment: native gel or EMSA; purified proteins or complexes (2.5 µg, or 5 µg where in excess) mixed, incubated 10 min at room temperature, native PAGE, Coomassie-stained; both purified. (In general: Mobility shift assays separate free from complexed probe on a gel.)

Test [2] addresses RbcL from Synechococcus elongatus PCC 7942, made in E. coli (Synechococcus elongatus PCC 7942). The test can be described thus: native gel or EMSA; raf1 from Synechocystis co-expressed with rbcL genes in E. coli (or rbcL alone); crude extracts separated by native PAGE and probed with anti-RbcL or anti-RAF1 antibodies.

Results are given in words; binding and its absence hold for the method and conditions named. Binding can be weak; no strength is given. Sequences can lack the tags named with a protein.

B1: RAF1 from Synechocystis sp. PCC 6803, untagged, made in E. coli (protein)
chain: MTHSPESNPTVSAAEAAELIRSLLHKEGTWVDWGKKCQQLQKAGYGAEEIFEQSGFQKVQQNLVIVASQVYESLVKQGIDETVLSYYRGPKSDVLYELRILNHQQRAIAAVEAQQKNLAADEAKELAKAFQEFGYLSQLPEGFTDHPGDALAYQCWKLARQKKNLPERTRLIVKGLKFAHSPNARQAIEKLLTDLTAQPSRKAPLVPVFRLEEDQEAARLIPVAGTFPLQPQAVQAVQSLEQVEPFGLVSYQGEGAVVPVPQWQAILTAEDPVAIFCPAGQVSESLARKDEQVLVVVDRSKKIWNDGSYFLLNQGETVAIQWCETEPEREILAQVVLVLRPKKIFDANNLREPWQMDD
B1: the binding entry in test [1] and in test [2] was “binds” each time.

Source of the values: PMC5387032 (Photosynthesis Research, 2017).
